Measured values taken from the supplement of paper PMC9233669.
Variants at the background level are over-represented here.

Key:
biotinyl-Ile-oxazolone = assay: self-aminoacylation, catalytic enhancement (BIO) (fold over background); higher = more active; k-Seq, kA / k0A0; sequences stand for … in GGGAAUGGAUCCACAUCUACGAAUUC…UUCACUGCAGACUUGACGAAGCUG
Procedure, shortened: (§1)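 Working in 50 μL HEPES/NaCl/KCl/MgCl2/CaCl2 buffer with 5% acetonitrile at pH 6.9–7.0, mutagenized RNA pools (0.43 μM; 21-nt variable region) were reacted with 2–1250 μM of each biotinyl-aminoacyl-oxazolone for 90 minutes at room temperature. Streptavidin capture followed, with quantification by triplicate qPCR and Illumina sequencing. Catalytic enhancement is reported as median kA over the uncatalyzed rate, the low-activity peak of a bimodal Gaussian fit to the data.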

biotinyl-Leu-oxazolone = assay: self-aminoacylation, catalytic enhancement (BLO) (fold over background); higher = more active; k-Seq, kA / k0A0; sequences stand for … in GGGAAUGGAUCCACAUCUACGAAUUC…UUCACUGCAGACUUGACGAAGCUG
Procedure, shortened: as §1

biotinyl-Trp-oxazolone = assay: self-aminoacylation, catalytic enhancement (BWO) (fold over background); higher = more active; k-Seq, kA / k0A0; sequences stand for … in GGGAAUGGAUCCACAUCUACGAAUUC…UUCACUGCAGACUUGACGAAGCUG
Procedure, shortened: as §1

biotinyl-Met-oxazolone = assay: self-aminoacylation, catalytic enhancement (BMO) (fold over background); higher = more active; k-Seq, kA / k0A0; sequences stand for … in GGGAAUGGAUCCACAUCUACGAAUUC…UUCACUGCAGACUUGACGAAGCUG
Procedure, shortened: as §1

biotinyl-Phe-oxazolone = assay: self-aminoacylation, catalytic enhancement (BFO) (fold over background); higher = more active; k-Seq, kA / k0A0; sequences stand for … in GGGAAUGGAUCCACAUCUACGAAUUC…UUCACUGCAGACUUGACGAAGCUG
Procedure, shortened: as §1

biotinyl-Val-oxazolone = assay: self-aminoacylation, catalytic enhancement (BVO) (fold over background); higher = more active; k-Seq, kA / k0A0; sequences stand for … in GGGAAUGGAUCCACAUCUACGAAUUC…UUCACUGCAGACUUGACGAAGCUG
Procedure, shortened: as §1

Sequence | self-aminoacylation (biotinyl-Ile-oxazolone) | self-aminoacylation (biotinyl-Leu-oxazolone) | self-aminoacylation (biotinyl-Trp-oxazolone) | self-aminoacylation (biotinyl-Met-oxazolone) | self-aminoacylation (biotinyl-Phe-oxazolone) | self-aminoacylation (biotinyl-Val-oxazolone)
AUCACCCUGGUCAUCGAGAGA [Fam2.1 aminoacylation ribozyme variant] | 1.69 | 1.41 | 0.96 | 1.41 | 1.6 | 1.25
AUCACCCUGGUCAUCGAGUCA [Fam2.1 aminoacylation ribozyme variant] | 0.895 | 0.847 | 0.571 | 1.12 | 0.672 | 0.989
AUCCACCUAGUUCAUCGGGUG [Fam2.2 aminoacylation ribozyme variant] | 2.9 | 4.83 | 4.63 | 3.53 | 24.1 | 3.24
AUGACCCUGGUCAUCGAGAGA [Fam2.1 aminoacylation ribozyme variant] | 1.28 | 1.52 | 1.36 | 1.47 | 2.57 | 1.34
AUGACCCUGGUCAUCGAUUGA [Fam2.1 aminoacylation ribozyme variant] | 1.07 | 1.14 | 0.593 | 1.3 | 0.924 | 1.16
AUGAUUGCUAAUAGUCGCAAG [Fam3.1 aminoacylation ribozyme variant] | 1.34 | 1.53 | 1.61 | 1.67 | 2.06 | 1.24
AUGCACCUAAGUCAUCGGGUG [Fam2.2 aminoacylation ribozyme variant] | 5.66 | 10.5 | 8.67 | 8.76 | 58.2 | 4.84
AUGUUUCCUAAUAGUCGCAAG [Fam3.1 aminoacylation ribozyme variant] | 1.18 | 1.05 | 0.995 | 1 | 0.67 | 1.17
AUGUUUGCUAAUAGUUGCAAG [Fam3.1 aminoacylation ribozyme variant] | 1.18 | 1.01 | 1.16 | 1.15 | 1.4 | 1.03
AUUAACCUAGGUCAUCGGAUG [Fam2.2 aminoacylation ribozyme variant] | 0.927 | 0.699 | 0.823 | 0.818 | 0.454 | 0.977
AUUAACCUAUGUCAUCGGGUG [Fam2.2 aminoacylation ribozyme variant] | 3.43 | 6.82 | 5.05 | 5.3 | 36 | 3.13
AUUAACCUGGACAUCGAGUGA [Fam2.1 aminoacylation ribozyme variant] | 2.99 | 6.88 | 8.58 | 6.63 | 32.9 | 2.89
AUUACACUGGUCAUCCAGUGA [Fam2.1 aminoacylation ribozyme variant] | 1.69 | 3.01 | 3.06 | 3.47 | 9.37 | 1.93
AUUACACUGGUCAUCGAUUGA [Fam2.1 aminoacylation ribozyme variant] | 0.92 | 0.905 | 0.662 | 0.897 | 0.701 | 0.863
AUUACCAUGGUCAUCGAGUGC [Fam2.1 aminoacylation ribozyme variant] | 1.12 | 1.47 | 1.35 | 1.38 | 0.948 | 1.17
AUUACCAUGGUCAUUGAGUGA [Fam2.1 aminoacylation ribozyme variant] | 5.76 | 12.1 | 13.8 | 11.8 | 63.6 | 5.51
AUUACCCCGGUCAACGAGUGA [Fam2.1 aminoacylation ribozyme variant] | 3.08 | 4.74 | 6.44 | 5.86 | 28.2 | 3.47
AUUACCCCGGUCAUCGAGUGC [Fam2.1 aminoacylation ribozyme variant] | 0.849 | 1.04 | 1.19 | 1.18 | 0.415 | 1.09
AUUACCCGGGUAAUCGAGUGA [Fam2.1 aminoacylation ribozyme variant] | 5.16 | 13.9 | 13.2 | 12.1 | 81 | 5.84
AUUACCCGGGUCAUUGAGUGA [Fam2.1 aminoacylation ribozyme variant] | 4.35 | 8.98 | 10.8 | 9.41 | 56.8 | 4.83
AUUACCCUACUCAUCGAGUGA [Fam2.1 aminoacylation ribozyme variant] | 3.24 | 6.54 | 9 | 7.19 | 35.1 | 3.19
AUUACCCUCGUCAUCGAAUGA [Fam2.1 aminoacylation ribozyme variant] | 0.744 | 0.692 | 0.356 | 0.728 | 0.573 | 0.849

Sequence | self-aminoacylation (biotinyl-Ile-oxazolone) | self-aminoacylation (biotinyl-Leu-oxazolone) | self-aminoacylation (biotinyl-Trp-oxazolone) | self-aminoacylation (biotinyl-Met-oxazolone) | self-aminoacylation (biotinyl-Phe-oxazolone) | self-aminoacylation (biotinyl-Val-oxazolone)
AUUACCCUCGUCAUCGAGUGU [Fam2.1 aminoacylation ribozyme variant] | 1.34 | 2 | 1.49 | 1.88 | 1.56 | 1.4
AUUACCCUCGUCGUCGAGUGA [Fam2.1 aminoacylation ribozyme variant] | 1.45 | 2.04 | 2.11 | 1.85 | 3.84 | 1.35
AUUACCCUGAGCAUCGAGUGA [Fam2.1 aminoacylation ribozyme variant] | 2.06 | 3.99 | 4.96 | 4.43 | 8.97 | 2.45
AUUACCCUGAUCAUCGAGUAA [Fam2.1 aminoacylation ribozyme variant] | 1.25 | 1.02 | 0.877 | 1.33 | 1.09 | 1.32
AUUACCCUGCUCAUCGAGUUA [Fam2.1 aminoacylation ribozyme variant] | 0.729 | 0.715 | 0.544 | 0.674 | 0.68 | 0.798
AUUACCCUGCUGAUCGAGUGA [Fam2.1 aminoacylation ribozyme variant] | 1.93 | 2.87 | 2.77 | 2.68 | 10.4 | 1.67
AUUACCCUGGACAUCGAGUAA [Fam2.1 aminoacylation ribozyme variant] | 1.15 | 1.08 | 0.875 | 0.95 | 0.788 | 1.03
AUUACCCUGGACAUCGAGUUA [Fam2.1 aminoacylation ribozyme variant] | 0.805 | 0.772 | 0.639 | 0.682 | 0.728 | 0.75
AUUACCCUGGGCAUCGAGUAA [Fam2.1 aminoacylation ribozyme variant] | 1.1 | 1.11 | 0.725 | 1.39 | 0.782 | 1.13
AUUACCCUGGGCAUCGAGUGG [Fam2.1 aminoacylation ribozyme variant] | 0.954 | 1.28 | 1.61 | 0.871 | 1.08 | 0.826
AUUACCCUGGUAAUCGAGGGA [Fam2.1 aminoacylation ribozyme variant] | 1.1 | 0.931 | 0.832 | 0.924 | 0.55 | 1.04
AUUACCCUGGUCAACGAUUGA [Fam2.1 aminoacylation ribozyme variant] | 0.659 | 0.697 | 0.43 | 0.831 | 0.776 | 0.799
AUUACCCUGGUCACCGACUGA [Fam2.1 aminoacylation ribozyme variant] | 0.913 | 1.13 | 0.519 | 0.651 | 0.426 | 1.05
AUUACCCUGGUCACCGAGUCA [Fam2.1 aminoacylation ribozyme variant] | 1.43 | 1.75 | 1.84 | 1.45 | 0.799 | 1.49
AUUACCCUGGUCAGCGAGUCA [Fam2.1 aminoacylation ribozyme variant] | 0.893 | 0.732 | 0.33 | 0.674 | 0.324 | 0.955
AUUACCCUGGUCAGUGAGUGA [Fam2.1 aminoacylation ribozyme variant] | 1.11 | 1.01 | 0.587 | 0.869 | 1.24 | 0.883
AUUACCCUGGUCAUAGAGUGC [Fam2.1 aminoacylation ribozyme variant] | 0.877 | 0.969 | 0.631 | 0.989 | 0.744 | 1.09
AUUACCCUGGUCAUCAAGAGA [Fam2.1 aminoacylation ribozyme variant] | 0.761 | 0.659 | 0.478 | 0.779 | 0.91 | 0.653
AUUACCCUGGUCAUCAAGUAA [Fam2.1 aminoacylation ribozyme variant] | 0.742 | 0.589 | 0.629 | 0.659 | 0.488 | 0.585
AUUACCCUGGUCAUCAAGUCA [Fam2.1 aminoacylation ribozyme variant] | 0.781 | 0.687 | 0.535 | 0.619 | 0.534 | 0.843
AUUACCCUGGUCAUCGAACGA [Fam2.1 aminoacylation ribozyme variant] | 0.959 | 0.662 | 0.867 | 0.812 | 0.752 | 0.748
